Source: patent publication US20240009211A1, “PHARMACEUTICAL COMPOSITION FOR TREATMENT OF LUNG CANCER COMPRISING CANNABIDIOL AND ANTICANCER AGENT AS ACTIVE INGREDIENTS, AND USE THEREOF” (NEOCANNBIO CO., LTD., priority 2022, published 2024)

Test system: A549 cells
Experiment: Anti-cancer agents with or without CBD, WST-8 cell survival
Assay type: cell-based
Settings: Homo sapiens; A549, 48 h, with CBD (15 μM)
Procedure: After completion of culture, 1/10 of WST-8 solution (Quanti-Max™, BIOMAX, Korea) was added to the medium, and after additional culture at 37° C. for 1 hour, the cell survival rate was determined by measuring absorbance at 450 nm, and expressed as a percentage of the control without any treatment. The experiment was conducted independently and repeated three times.

`CC/C(=C(\c1ccccc1)c1ccc(OCCN(C)C)cc1)c1ccccc1` [Tamoxifen] showed an IC50 of 16.7 µM.
